{"source": "paper PMC12040169", "about": "(PLOS Biology, 2025)", "note": "Some of the results follow.", "data": [{"system": "T1, CTL2-GFP (C. trachomatis L2/434/Bu, GFP-expressing)", "T1 construct": "L2/434/Bu, GFP-expressing", "set-up": "species or system HeLa; Intracellular C. trachomatis growth in HeLa cells, bulk GFP fluorescence relative to DMSO", "settings": "bulk GFP, single well; 28.5 h, 10 µM; inhibitor", "units": {"% of control remaining": "%"}, "values": [{"smiles": "COC(=O)[C@H]1CN(C(=O)CN2CCCC2=O)C[C@@H]1c1ccccc1F", "note": "[CBK283518]", "% of control remaining": 125.014}, {"smiles": "CCn1c(SCC(=O)NC(=O)NC2CCCCC2)nc2ccccc21", "note": "[CBK306037]", "% of control remaining": 139.788}, {"smiles": "c1csc(-c2cncc(NCCc3ccncc3)n2)c1", "note": "[CBK065797]", "% of control remaining": 113.513}, {"smiles": "CN(CC(=O)Nc1cccc(Cl)c1)S(=O)(=O)c1ccc2ccccc2c1", "note": "[CBK266746]", "% of control remaining": 149.599}, {"smiles": "COC(=O)c1c(C)n(CCCNc2ccc([N+](=O)[O-])cc2Cl)c2ccc(O)cc12", "note": "[CBK268363]", "% of control remaining": 158.068}, {"smiles": "CC(=O)Nc1ccc(NC(=O)COc2c(C)cc(Br)cc2C)cc1", "note": "[CBK267321]", "% of control remaining": 118.2}, {"smiles": "Cc1nc([N+](=O)[O-])c(NCCO)n1Cc1ccccc1", "note": "[CBK261422]", "% of control remaining": 100}, {"smiles": "N#Cc1nc(=O)[nH]cc1N", "note": "[CBK021411]", "% of control remaining": 132.18}, {"smiles": "CCOC(=O)c1c(NC(=O)CSc2n[nH]c(N)n2)sc2c1CCCCC2", "note": "[CBK266569]", "% of control remaining": 99.3587}, {"smiles": "Cc1ccc(N(CC(=O)Nc2cccc3ccccc23)S(=O)(=O)c2ccc(F)cc2)cc1", "note": "[CBK262707]", "% of control remaining": 72.556}, {"smiles": "Cn1cnnc1C1CCN(C(=O)CC2OCCc3sccc32)CC1", "note": "(stereo not shown) [CBK304912]", "% of control remaining": 110.09}, {"smiles": "CCNC(=O)Nc1ccc2ccc(-c3ccsc3)nc2n1", "note": "[CBK070699]", "% of control remaining": 101.631}, {"smiles": "Nc1ncnc(Nc2ccc(Nc3ccccc3)cc2)c1[N+](=O)[O-]", "note": "[CBK267347]", "% of control remaining": 171.281}, {"smiles": "CC(=O)N1CC(C(=O)Nc2ncc(-c3ccccc3)n2C)C1", "note": "[CBK281373]", "% of control remaining": 119.412}, {"smiles": "O=C(/C=C/c1ccc(F)cc1)NCCc1ccc(S(=O)(=O)N2CCCC2)cc1", "note": "[CBK265227]", "% of control remaining": 129.086}, {"smiles": "CCOC(=O)C1CCN(C(=O)Nc2cc(C)on2)CC1", "note": "[CBK306280]", "% of control remaining": 140.187}, {"smiles": "Cn1c(CO)nnc1[C@H]1C[C@@H](NC(=O)COc2ccc(Cl)c(Cl)c2)C1", "note": "[CBK306667]", "% of control remaining": 106.357}, {"smiles": "Cc1cc(S(=O)(=O)NCc2cc(F)c(F)c(F)c2)c(C)cc1Cl", "note": "[CBK043813]", "% of control remaining": 117.2}, {"smiles": "O=C(Nc1ccc(N2CCN(Cc3ccccc3F)CC2)cc1)c1cc2ccccc2o1", "note": "[CBK267210]", "% of control remaining": 153.008}, {"smiles": "CCc1nnsc1C(=O)Nc1nn(C)c2cccc(N3CCOCC3)c12", "note": "[CBK307671]", "% of control remaining": 134.045}, {"smiles": "COc1ccccc1NC(=O)C(=O)N/N=C/c1ccc(C(=O)O)cc1", "note": "[CBK262148]", "% of control remaining": 112.718}, {"smiles": "CC(=O)c1c2c(c(N3CCN(C#N)CC3)[nH]c1=S)CC(C)(C)OC2", "note": "[CBK018622]", "% of control remaining": 114.714}, {"smiles": "C=CCn1c2cc(C)sc2c2cnn(CC(=O)OC)c(=O)c21", "note": "[CBK284166]", "% of control remaining": 157.648}, {"smiles": "Cc1nn2c(-c3ccncc3)ccnc2c1-c1ccccc1", "note": "[CBK288548]", "% of control remaining": 128.961}, {"smiles": "CCCc1ccc(OCC(=O)Nc2ccccc2C(N)=O)cc1", "note": "[CBK263103]", "% of control remaining": 91.2585}, {"smiles": "Cn1c(/C(C#N)=C\\c2ccc(-c3ccc(S(N)(=O)=O)cc3)o2)nc2ccccc21", "note": "[CBK266380]", "% of control remaining": 177.579}, {"smiles": "Cc1c(C)n(CC(O)CNCc2ccco2)c2ccccc12", "note": "(stereo not shown) [CBK263970G]", "% of control remaining": 90.1782}, {"smiles": "Cc1ccc(OCCn2c(SCCC(=O)O)nc3ccccc32)cc1", "note": "[CBK262561]", "% of control remaining": 100}, {"smiles": "CN1CCN(C)C(COc2ncccc2C(F)(F)F)C1", "note": "(stereo not shown) [CBK113458]", "% of control remaining": 107.891}, {"smiles": "Nc1nc(OCc2ccncc2)cnc1-c1ccc(OC(F)(F)F)cc1", "note": "[CBK145121]", "% of control remaining": 130.142}, {"smiles": "CC(=O)Nc1ccc(-c2ccc(C(=O)NCCc3ccc(O)cc3)cn2)cc1", "note": "[CBK158840]", "% of control remaining": 87.6023}, {"smiles": "O=C(NCCCn1cccn1)N1CCCN(Cc2ccc(Cl)cc2)CC1", "note": "[CBK305447]", "% of control remaining": 87.7219}, {"smiles": "COc1cccc(CC(=O)Nc2nc(Cc3n[nH]c(=S)n3C)cs2)c1", "note": "[CBK296634]", "% of control remaining": 101.263}, {"smiles": "CCCCc1c(O)nc(SCC(=O)NCC2CCCO2)[nH]c1=O", "note": "(stereo not shown) [CBK073281]", "% of control remaining": 119.63}, {"smiles": "CCCCNc1cc(N2CCOC(c3cnn(CC)c3)C2)nc(N)n1", "note": "(stereo not shown) [CBK305423]", "% of control remaining": 121.438}, {"smiles": "COc1ccc(C(=O)Nc2noc3nc(C)ccc23)cc1OC", "note": "[CBK287832]", "% of control remaining": 107.634}, {"smiles": "COCCNC(=O)Nc1ccc2nc(-c3ccccn3)c(-c3ccccn3)nc2c1", "note": "[CBK265151]", "% of control remaining": 118.066}, {"smiles": "Nc1ncc(-c2cncnc2)nc1NCc1ccccc1", "note": "[CBK063584]", "% of control remaining": 232.361}, {"smiles": "OCc1ccc(-c2nccnc2NCC2CC2)cc1", "note": "[CBK037334]", "% of control remaining": 194.867}, {"smiles": "CCNC(=O)C1(Cc2ccccc2-c2cccnc2)CCOCC1", "note": "[CBK285218]", "% of control remaining": 113.867}, {"smiles": "NC(=O)N/N=C/COc1cccc(C(F)(F)F)c1", "note": "[CBK022736]", "% of control remaining": 108.474}, {"smiles": "FC(F)(F)c1cccc(SCc2ccc(Cl)cc2)n1", "note": "[CBK107197]", "% of control remaining": 113.415}, {"smiles": "CN(C)C(=O)CO[C@@H]1CO[C@H]2[C@@H]1OC[C@@H]2Nc1nccc(-c2cccc(F)c2)n1", "note": "[CBK289533]", "% of control remaining": 99.5367}, {"smiles": "COCCNc1cc(-c2cccc(F)c2C(N)=O)c2cc[nH]c2n1", "note": "[CBK307682]", "% of control remaining": 97.9745}, {"smiles": "Cc1ccc(S(=O)(=O)NCC(=O)Nc2cnc(-c3cccc(C)c3)c(-c3ccc(N)cc3)n2)cc1", "note": "[CBK037600]", "% of control remaining": 133.53}, {"smiles": "O=C(CCc1ccc(S(=O)(=O)NC2CC2)cc1)N1CCCC1c1ccncc1", "note": "(stereo not shown) [CBK296673]", "% of control remaining": 120.605}, {"smiles": "CC1(C)CC(CC(=O)NN)(c2ccccc2)CCO1", "note": "(stereo not shown) [CBK261358C]", "% of control remaining": 100}, {"smiles": "Oc1ccc(Oc2ccc(Oc3ccc(O)cc3)cc2)cc1", "note": "[CBK033968]", "% of control remaining": 109.395}, {"smiles": "Cc1nc2ccccc2c(C(=O)O)c1-c1ccccc1", "note": "[CBK274187]", "% of control remaining": 118.95}, {"smiles": "CCc1nn(CC(=O)N(CC)CC)c(=O)c2cc3sccc3n12", "note": "[CBK284054]", "% of control remaining": 144.801}, {"smiles": "COc1ccc(-c2cn[nH]c2-c2ccc(OCCN3CCOCC3)cc2O)cc1", "note": "[CBK288112]", "% of control remaining": 145.267}, {"smiles": "O=C(Nc1cc(Oc2ccc(F)cc2)cc(Oc2cccnc2)c1)c1nn2c(C(F)(F)F)cc(-c3cccs3)nc2c1Cl", "note": "[CBK262568]", "% of control remaining": 100}, {"smiles": "CCC1Oc2ccc(C(O)c3ccco3)cc2N(Cc2cccc(OC)c2)C1=O", "note": "(stereo not shown) [CBK286190]", "% of control remaining": 153.574}, {"smiles": "Cc1cccc(NC(=O)C(Cc2ccccc2)C(=O)Nc2cccc(C)c2)c1", "note": "[CBK266899]", "% of control remaining": 172.703}, {"smiles": "OCCN(CCO)c1nccnc1-c1ccccc1F", "note": "[CBK036610]", "% of control remaining": 156.98}, {"smiles": "CC(=O)N1CCN([C@H]2[C@@H]3OC[C@@H](O3)[C@@H](NC(=O)NC3CCCCC3)[C@@H]2O)CC1", "note": "[CBK288810]", "% of control remaining": 126.173}, {"smiles": "CC(C)c1nnc(NC(=O)CC2CCN(C(=O)C3(c4ccccc4)CCCC3)CC2)s1", "note": "[CBK285905]", "% of control remaining": 104.93}, {"smiles": "COC(=O)c1cccc(OCCn2c(=O)c(C#N)cn(C3CC3)c2=O)c1", "note": "[CBK305990]", "% of control remaining": 126.547}, {"smiles": "CCn1cc(NC(=O)CC(C)(O)c2ccccc2)ccc1=O", "note": "(stereo not shown) [CBK304507]", "% of control remaining": 126.948}, {"smiles": "COCC(O)CN(C)c1nc(-c2ccncc2)nc2ccccc12", "note": "(stereo not shown) [CBK305170]", "% of control remaining": 119.317}, {"smiles": "O=C(O)CN(c1ccc([N+](=O)[O-])cc1)S(=O)(=O)c1ccccc1", "note": "[CBK263782]", "% of control remaining": 125.3}, {"smiles": "Nc1nc(C2CC(O)C2)cc(N2CCC(Oc3ccccc3Cl)CC2)n1", "note": "(stereo not shown) [CBK307392]", "% of control remaining": 82.3056}, {"smiles": "O=C(CC1C(=O)N(Cc2ccccc2)C(=S)N1Cc1ccccc1)Nc1ccccc1", "note": "(stereo not shown) [CBK263871]", "% of control remaining": 96.5364}, {"smiles": "Cc1c(C(=O)N2CCCC(c3cc4ncccc4[nH]3)C2)cnn1C", "note": "(stereo not shown) [CBK283420]", "% of control remaining": 158.643}, {"smiles": "COc1ccccc1CN(C)C(C)C(=O)Nc1sccc1C(N)=O", "note": "(stereo not shown) [CBK306466]", "% of control remaining": 105.599}, {"smiles": "COCc1cccc(Nc2ncnc3c2cnn3CCC#N)c1", "note": "[CBK305983]", "% of control remaining": 118.11}, {"smiles": "Cn1cc(C(=O)CCC(=O)NC2CCCN(c3ncccn3)C2)cn1", "note": "(stereo not shown) [CBK305480]", "% of control remaining": 151.903}, {"smiles": "Cc1csc(C(Cc2cccs2)NC(=O)CN2CCCC2=O)n1", "note": "(stereo not shown) [CBK284691]", "% of control remaining": 109.775}, {"smiles": "N#CC(NS(=O)(=O)c1ccc(OC(F)(F)F)cc1)c1ccccc1", "note": "(stereo not shown) [CBK043714]", "% of control remaining": 126.339}, {"smiles": "Cc1nn(C)cc1S(=O)(=O)N1CCCC(c2cccc(Cc3ccc(Cl)cc3)n2)C1", "note": "(stereo not shown) [CBK286506]", "% of control remaining": 100.18}, {"smiles": "COc1ccccc1CNc1ncnc2[nH]ncc12", "note": "[CBK288100]", "% of control remaining": 140.951}, {"smiles": "COc1ccc2[nH]cc(CCNC(=O)c3ccccn3)c2c1", "note": "[CBK115866]", "% of control remaining": 107.104}, {"smiles": "C(=N\\c1cccc2c(/N=C/c3c[nH]c4ccccc34)cccc12)/c1c[nH]c2ccccc12", "note": "[CBK260887]", "% of control remaining": 111.212}, {"smiles": "CCCCOc1ccc(Oc2ncc(C(F)(F)F)cc2Cl)cc1", "note": "[CBK161629]", "% of control remaining": 127.35}, {"smiles": "O=c1c2c3c(sc2nc(SCc2nc4ccccc4[nH]2)n1Cc1ccco1)CCC3", "note": "[CBK268306]", "% of control remaining": 104.14}, {"smiles": "Oc1nc(O)c2c3c(n(CCn4ccnc4)c2n1)CCCC3", "note": "[CBK024380B]", "% of control remaining": 114.516}, {"smiles": "CS(=O)(=O)N1CCC(C(=O)NC(c2ccccc2)c2cnccn2)CC1", "note": "(stereo not shown) [CBK059901]", "% of control remaining": 87.672}, {"smiles": "CC(=O)Nc1cccc(-c2ccc(Nc3cccnc3)nc2)c1", "note": "[CBK037703]", "% of control remaining": 192.721}, {"smiles": "CS(=O)(=O)N1CC2(CCN(CCc3ccc(F)cc3)CC2)c2ccccc21", "note": "[CBK084103]", "% of control remaining": 100}]}]}
